# Some of the results follow.
# Chains of the proteins cited; added tags and fusions are not shown.
# UniProt Q0JBA9, entry or part of it: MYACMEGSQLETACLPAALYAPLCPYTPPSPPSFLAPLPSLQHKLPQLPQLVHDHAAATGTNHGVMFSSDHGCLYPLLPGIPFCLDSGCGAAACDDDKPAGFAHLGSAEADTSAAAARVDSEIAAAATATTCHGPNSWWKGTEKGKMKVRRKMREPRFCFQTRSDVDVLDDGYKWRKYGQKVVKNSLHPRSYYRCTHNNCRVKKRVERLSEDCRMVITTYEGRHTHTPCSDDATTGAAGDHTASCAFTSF
# Molecular target: OsWRKY34 (Oryza sativa, UniProt Q0JBA9 1-250)
# Assay: protein-binding microarray (RPBM); PBS, 2% BSA, 51.3 ng/ul salmon testes DNA, 50 uM zinc acetate, 200 nM TF, 25 C, 1 h; high values mean tight binding
# Settings: protein: recombinant; tags: N-terminal polyhistidine and DsRed monomer fusion (pET32a); label: CyDye5-dUTP incorporated in the synthesized complementary strand; 3' TTTTT single-stranded linker to array surface; dsDNA, one strand shown
# In short: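 Binding signal is reported as fluorescence intensity per feature (arbitrary units) from an Axon 4000B scanner. Incubation used 200 nM of each Ni–NTA-purified, N-terminally polyhistidine- and DsRed-fused transcription factor from E. coli BL21-CodonPlus on a double-stranded custom Agilent array for 1 h at 25 °C, with 50 µM zinc acetate in the buffer, followed by washing.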
row,Sequence,binding signal
1,CTTTGATTTTTCAACACACGTTTGACCATTTGTTTTATATCGGAGTCACCTAGTGCAG,10500 fluorescence intensity (a.u.)
2,CACTTGCATCAACTCCTTTTCACTCCACTCACTTGCACTCCGGAGTCACCTAGTGCAG,10800 fluorescence intensity (a.u.)
3,ACTGATCTTAATGCACGTCCATGGCTCATTGTCTCTGTTGCGGAGTCACCTAGTGCAG,8380 fluorescence intensity (a.u.)
4,ACATGTTTGACCGTTCGTCTTATTCAAAAGTTAATTCTTTCGGAGTCACCTAGTGCAG,10200 fluorescence intensity (a.u.)
5,CAACCCTCGCCGCCCAAATGCATACCTATATATATACTCCCGGAGTCACCTAGTGCAG,8740 fluorescence intensity (a.u.)
6,TTGCTACCTTGTTTCTAGAGTTAGTATGTTAGTATGTGTTCGGAGTCACCTAGTGCAG,10100 fluorescence intensity (a.u.)
7,CAGCTTGAAATTAGGCCCAGTTTGTTTCGGTTCTTGGGCCCGGAGTCACCTAGTGCAG,8390 fluorescence intensity (a.u.)
8,TCCCTTTTCGCTGCCCATATCTGAACCCCATGCCCGTGCCCGGAGTCACCTAGTGCAG,10900 fluorescence intensity (a.u.)
9,CATCATGACTTATTATATTCACACCTCCGTGCAAACCTATCGGAGTCACCTAGTGCAG,8920 fluorescence intensity (a.u.)
10,GAAGGGTTTGTACAAGTGCTCAGGCTATTGGTATGTCCAACGGAGTCACCTAGTGCAG,8280 fluorescence intensity (a.u.)
11,AGTCGTGGCCCTCCACCCCAAGCCACCCACTTAAATTCCTCGGAGTCACCTAGTGCAG,11200 fluorescence intensity (a.u.)
12,CATTTTTCTAATTACAAAGTCCATTTCTTTTTATGTTTTCCGGAGTCACCTAGTGCAG,8830 fluorescence intensity (a.u.)
13,CATGTCCAACTTTAATTGTTCGTCTTTTTTTTGAAAAAACCGGAGTCACCTAGTGCAG,8630 fluorescence intensity (a.u.)
14,ACATATAAATTTTTAACTTTTCCATCACATTGTTTTAATTCGGAGTCACCTAGTGCAG,10500 fluorescence intensity (a.u.)
15,GCCTATCCTAGCGTCGTCATCTTCCTCGCGCGATACGGTTCGGAGTCACCTAGTGCAG,9050 fluorescence intensity (a.u.)
16,CACGCCCATCCGCATCACGCCGCGCCTCCTACACCGCGTCCGGAGTCACCTAGTGCAG,12200 fluorescence intensity (a.u.)
17,CTTTTCACTTCATATTATAAAAGCTTTGACTTTTTTTTGTCGGAGTCACCTAGTGCAG,11600 fluorescence intensity (a.u.)
18,TATAGATAGTGGTTTGCTCTACTTTTAGGCTCCGTTCGGTCGGAGTCACCTAGTGCAG,9590 fluorescence intensity (a.u.)
19,CCGTTCTATCCATAGCGCATGCCTATTTGTATCTTCTCCACGGAGTCACCTAGTGCAG,9960 fluorescence intensity (a.u.)
20,GACCTTCCTGCAGAAAAATTGGACATGCAGACATCTAATCCGGAGTCACCTAGTGCAG,8530 fluorescence intensity (a.u.)
21,TCTCTTTGGCTGATCTGTGACCGTGAGCTCTTCGTCTCCGCGGAGTCACCTAGTGCAG,10600 fluorescence intensity (a.u.)

row,Sequence,binding signal
1,CCGCGGGCTTGGCTTGGCTGGCACCCTCTCCTTCTCGTCTCGGAGTCACCTAGTGCAG,10300 fluorescence intensity (a.u.)
2,GCCAGCAGTGCATTATTCTGCCTATATATACGACCTTACCCGGAGTCACCTAGTGCAG,10800 fluorescence intensity (a.u.)
3,TTTTTTTTTCTTTTGGGGCGGAAGGAGTAGTATGGAGTTTCGGAGTCACCTAGTGCAG,12300 fluorescence intensity (a.u.)
4,AAATAGTAGATGTGACTTATAATCTTTTTTCTTACTTACACGGAGTCACCTAGTGCAG,8230 fluorescence intensity (a.u.)
5,CTCACTCGTTTTCCGCATGCATGTTTATCAAACTACTAAACGGAGTCACCTAGTGCAG,8200 fluorescence intensity (a.u.)
6,CTCCGGCCTCTACCGCATCTACCACCATCACTAGCTCTCGCGGAGTCACCTAGTGCAG,10100 fluorescence intensity (a.u.)
7,TACGTCATCGCTTAATTTCCAAGGCTTCCGTTTTCTCCTACGGAGTCACCTAGTGCAG,10100 fluorescence intensity (a.u.)
8,AGCATTTTGTACAAGTGTCATTTTCTCTCTGCCAATCCACCGGAGTCACCTAGTGCAG,9160 fluorescence intensity (a.u.)
9,CGAGGATGAAGACTACCTCGTCGTTGACTATGTGTGGTGTCGGAGTCACCTAGTGCAG,10400 fluorescence intensity (a.u.)
10,CCTTATTGGAGAAATCTCCTCAACAAGCTCCGTCTCTGCCCGGAGTCACCTAGTGCAG,8410 fluorescence intensity (a.u.)
11,TGGTGGTCCGTGTCCGTTTATTTACTGCGTTTACTTCAGTCGGAGTCACCTAGTGCAG,10200 fluorescence intensity (a.u.)
12,TTATAGGCCGTGTTATCTTCGACTCTATATCATTTTCAACCGGAGTCACCTAGTGCAG,9310 fluorescence intensity (a.u.)
13,CCGCATTCACGGCGGCCTTTTGATCCTGAACTGTCCATATCGGAGTCACCTAGTGCAG,12000 fluorescence intensity (a.u.)
14,GGGTGAACAAGCTGTTTTAGGTAATTTTCTGCTTTATCTTCGGAGTCACCTAGTGCAG,8630 fluorescence intensity (a.u.)
15,GAATCTCCACCGACTCCGACACCAACACACCCTCGGGCCACGGAGTCACCTAGTGCAG,8910 fluorescence intensity (a.u.)
16,GGCATTGTGGCATGTGTAGTGTGCTAACTGCCTAGCACACCGGAGTCACCTAGTGCAG,8050 fluorescence intensity (a.u.)
17,CTCCTATTTCCCCTCGTGGTCTCGCCTCGTCTCTTCCTTCCGGAGTCACCTAGTGCAG,9400 fluorescence intensity (a.u.)
18,GAATAGTTATCGAGTTGTTTTTTTTTGAGATCATATTTTTCGGAGTCACCTAGTGCAG,8750 fluorescence intensity (a.u.)
19,TTCTTTTTTCCATTAGCATTCCAACTTTTCGAAAACCTTCCGGAGTCACCTAGTGCAG,9030 fluorescence intensity (a.u.)
20,GCGTGTGGTGGGGTGTGTGGTGGGGACGACGCAGGAAGCGCGGAGTCACCTAGTGCAG,12400 fluorescence intensity (a.u.)
21,TCATGTTTAATTCGTGACTTACATGTCCTTTATGGTTGATCGGAGTCACCTAGTGCAG,10200 fluorescence intensity (a.u.)

row,Sequence,binding signal
1,CATTGCTACTTCCTTGCAGCGTGTGTGTCGGCTAGACCGTCGGAGTCACCTAGTGCAG,10300 fluorescence intensity (a.u.)
2,AATAACTTTTGCTTTAGGTGCATCTTACTGGTCAGATCCTCGGAGTCACCTAGTGCAG,8130 fluorescence intensity (a.u.)
3,AAATGTTGAGGTCAAAGTTGTATAACTTTGACTATTTATACGGAGTCACCTAGTGCAG,9660 fluorescence intensity (a.u.)
4,CGTCATGTGGCCCGCCCAAAGTTGTGTCTGCTCCGTTCATCGGAGTCACCTAGTGCAG,8890 fluorescence intensity (a.u.)
5,ACACTTATGAACTCACACACGTTACACTACTCTCATAAGTCGGAGTCACCTAGTGCAG,11300 fluorescence intensity (a.u.)
6,GGCCATTTTAGTCCGTACATTAAGTAATCTGTTGTAATTACGGAGTCACCTAGTGCAG,8860 fluorescence intensity (a.u.)
7,CTCAACTTTTAGCTTTTGGTTTCTAGTTCATTTTCTGAATCGGAGTCACCTAGTGCAG,8670 fluorescence intensity (a.u.)
8,ACTCTTAGACTGTCAATTGGTCGACATCTACGCTTATCATCGGAGTCACCTAGTGCAG,8160 fluorescence intensity (a.u.)
9,TGCTCTCTCTCGTGTGGTCTGGTCCGCGCGCTCGTGTATACGGAGTCACCTAGTGCAG,9150 fluorescence intensity (a.u.)
10,ATCCTTTTGTTACCTGCGATACCCTTTTTACAGTGCAGCCCGGAGTCACCTAGTGCAG,12100 fluorescence intensity (a.u.)
11,GGATTGGGGTTGAACCAGCCTTGACCCTTATAAAGGGGTTCGGAGTCACCTAGTGCAG,9180 fluorescence intensity (a.u.)
12,ATGTTTTGCAATCCTCTGTTTTACAATTGTATTCCTGTCACGGAGTCACCTAGTGCAG,9320 fluorescence intensity (a.u.)
13,GCACAAGGCAGATGGAGGTTGTACAGCTATTATTATTTCACGGAGTCACCTAGTGCAG,8380 fluorescence intensity (a.u.)
14,ATTATAAGTTGTTTCTTCTTAGGTTGTGTTTAGTTCCTTGCGGAGTCACCTAGTGCAG,9250 fluorescence intensity (a.u.)
15,GCGGCTGGGGTTGCGGTGCAATCTGGGGCGGGGATGCGAACGGAGTCACCTAGTGCAG,17100 fluorescence intensity (a.u.)
16,CAAGGAGGGAGTTGATGGTGGGATTGATCATGGGAGTTATCGGAGTCACCTAGTGCAG,8560 fluorescence intensity (a.u.)
17,CACTCCACTCCATCCGCGCTGCCTCCAAAACCCTCGACTCCGGAGTCACCTAGTGCAG,9480 fluorescence intensity (a.u.)
18,TTCTGAAATCCTTTCTACAGTTGGCGTATCCACTGAGTTTCGGAGTCACCTAGTGCAG,10000 fluorescence intensity (a.u.)
19,TTCCCAATATTTGACTTAAACATTGTCCTAAACGACTTTCCGGAGTCACCTAGTGCAG,8670 fluorescence intensity (a.u.)
20,TTGTGTGTGGTGTGTTGTTTTGAGGTGCAATCATTCGAACCGGAGTCACCTAGTGCAG,10000 fluorescence intensity (a.u.)
21,GCTTTGTTTGGGTTTATCTTCTGCTGAAATTCTCTCCTCACGGAGTCACCTAGTGCAG,9480 fluorescence intensity (a.u.)

# In a second layout: results already given
row	Sequence	binding signal
8	TCCCTTTTCGCTGCCCATATCTGAACCCCATGCCCGTGCCCGGAGTCACCTAGTGCAG	10900 fluorescence intensity (a.u.)
9	CATCATGACTTATTATATTCACACCTCCGTGCAAACCTATCGGAGTCACCTAGTGCAG	8920 fluorescence intensity (a.u.)
10	GAAGGGTTTGTACAAGTGCTCAGGCTATTGGTATGTCCAACGGAGTCACCTAGTGCAG	8280 fluorescence intensity (a.u.)

# A second format for part of the listing above:
row | Sequence | binding signal
1 | CCGCGGGCTTGGCTTGGCTGGCACCCTCTCCTTCTCGTCTCGGAGTCACCTAGTGCAG | 10300 fluorescence intensity (a.u.)
7 | TACGTCATCGCTTAATTTCCAAGGCTTCCGTTTTCTCCTACGGAGTCACCTAGTGCAG | 10100 fluorescence intensity (a.u.)
8 | AGCATTTTGTACAAGTGTCATTTTCTCTCTGCCAATCCACCGGAGTCACCTAGTGCAG | 9160 fluorescence intensity (a.u.)

# Following part

row,Sequence,binding signal
1,TATTATTTGTCTCTACCTCTTCTCTCATTATAATACTATTCGGAGTCACCTAGTGCAG,8830 fluorescence intensity (a.u.)
2,GATAATATCCGCTCTGTTTTCACCCCTACTGGTATTTACTCGGAGTCACCTAGTGCAG,13100 fluorescence intensity (a.u.)
3,ATAGTTATTGGCAGTGTGTATTATAGCAGTTCATCTGTTACGGAGTCACCTAGTGCAG,8220 fluorescence intensity (a.u.)
4,TATGATTTTTTCTAGATTTTTTGGTGACATTTTTTAGTTACGGAGTCACCTAGTGCAG,8150 fluorescence intensity (a.u.)
5,AGACGAGACCACCCTCCAGCGCGTTGGACATGCCTATATCCGGAGTCACCTAGTGCAG,8470 fluorescence intensity (a.u.)
6,TTGACACATGGACCCGTAAGCTGGTAGCCCATACCGGTCTCGGAGTCACCTAGTGCAG,13200 fluorescence intensity (a.u.)
7,TTGCCCTGTTCTTGGCGCTCGATTTGTTGGTATCTCGGTGCGGAGTCACCTAGTGCAG,8630 fluorescence intensity (a.u.)
8,TATTTTTTGGTTTCTGTGTCCAACGTTTAACCATCTGTCTCGGAGTCACCTAGTGCAG,8450 fluorescence intensity (a.u.)
9,CCGTGAAGGCCTCTCTTTCCCGCGACCACCACCTCACTCTCGGAGTCACCTAGTGCAG,11500 fluorescence intensity (a.u.)
10,CGGTTCCGCTCTCGCCGGAGCGAGGGGTGGGTGGAGGATGCGGAGTCACCTAGTGCAG,9370 fluorescence intensity (a.u.)
11,TTGGTAGAGTATCTTGATGGGAATTAGTATGTTCATTTTTCGGAGTCACCTAGTGCAG,9600 fluorescence intensity (a.u.)
12,GGCAATCCGGTGCTCCTTGTCTGAACTCTCTCAATCTCAACGGAGTCACCTAGTGCAG,8040 fluorescence intensity (a.u.)
13,GCACCCGGCGCGCCTCTCGCTCGTCACCTCCCGCCGCCGCCGGAGTCACCTAGTGCAG,8540 fluorescence intensity (a.u.)
14,TCATCTTTGGTTCTCTCGCCATCTTTCATAGCATGCATCCCGGAGTCACCTAGTGCAG,10500 fluorescence intensity (a.u.)
15,CCTCTTTAAATCTTAACCATTCATTCTCCCTCATCCATTTCGGAGTCACCTAGTGCAG,8810 fluorescence intensity (a.u.)
16,TAGTGTCGCGTCACACTGTCTGCTGTTCGTCGCGCTCTAACGGAGTCACCTAGTGCAG,9770 fluorescence intensity (a.u.)
17,GGCCCTTGTCGATTGATCCCCATGCTGTATATGATGATGACGGAGTCACCTAGTGCAG,9970 fluorescence intensity (a.u.)
18,CGTCTCCGACCAGCTCATGTCGTCTCCGGCGGCGTCCGCCCGGAGTCACCTAGTGCAG,11700 fluorescence intensity (a.u.)
19,TTCCTACTTGTTGTATACATTAATACTTCTATTCTAGTCTCGGAGTCACCTAGTGCAG,9270 fluorescence intensity (a.u.)
20,GGTTTATATGTCCGACGCTTGATCGTCCATTCTATTTTAACGGAGTCACCTAGTGCAG,8950 fluorescence intensity (a.u.)
21,CGCACCTAAAACTTCCTATATATTTATTGTCGTATTCAAACGGAGTCACCTAGTGCAG,9330 fluorescence intensity (a.u.)

# Source: publication PMC7819943, “Rice protein-binding microarrays: a tool to detect cis-acting elements near promoter regions in rice”
